Results deposited as PubChem BioAssay AID1259405 (NCATS, 2018).
Assay: 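Knock-downs that lift recombinant protein yield in hamster ovary cells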 (primary screen). System: Chinese hamster CHO-K1 ovary cells with stable secreted eGFP expression. Knock-down reagent: single siRNA against mouse genes, 0.8 pmol siRNA per well (2 µl of 400 nM stock). Timing: 3 days. Detection: 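Per-well intracellular GFP measured by laser scanning cytometry, plus viability from ATP luminescence, each relative to plate median of non-targeting control wells, in %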. Scale: GFP, % of control: higher = more GFP per well, higher productivity; viability (ATP), % of control: higher = more viable cells (more ATP). Active means: 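a knock-down is called active if GFP reaches 120% or more of non-targeting control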.
Here is an unselected part of about 50,000 reagents tested. Over the whole deposit, about 4,000 (8%) got an active call. 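Mouse siRNA library applied to hamster cells; one well for each siRNA.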 The numbers tell different reagents against one gene apart.

Knock-down of Nars1 #1 came out at: GFP, % of control 74.1; viability (ATP), % of control 74.7; inactive.
Silencing of Nars1 #2 gave: GFP, % of control 49.3; viability (ATP), % of control 25; inactive.
Nars1 #3 showed GFP, % of control 120; viability (ATP), % of control 80.8; inactive.
Knock-down of Ythdf2 #1 resulted in: GFP, % of control 36.4; viability (ATP), % of control 35.2; inactive.
After knock-down of Ythdf2 #2, the screen gave GFP, % of control 45.9; viability (ATP), % of control 61.5; inactive.
Against Ythdf2 #3, the values are GFP, % of control 70.9; viability (ATP), % of control 98.8; inactive.
Knock-down of Or6c76b #1 came out at: GFP, % of control 78.1; viability (ATP), % of control 67.8; inactive.
Depletion of Or6c76b #2 gave: GFP, % of control 112; viability (ATP), % of control 93.8; inactive.
Against Or6c76b #3, the entry reads GFP, % of control 136; viability (ATP), % of control 103; active.
With knock-down of Hal #1, the record shows GFP, % of control 103; viability (ATP), % of control 66; inactive.
Against Hal #2, the entry reads GFP, % of control 101; viability (ATP), % of control 84.3; inactive.
Depletion of Llgl1 #1 resulted in: GFP, % of control 83.4; viability (ATP), % of control 56.1; inactive.
With knock-down of Llgl1 #2, the record shows GFP, % of control 56.2; viability (ATP), % of control 32.7; inactive.
Knock-down of Llgl1 #3 gave: GFP, % of control 73.4; viability (ATP), % of control 77.7; inactive.
Ap1ar #1 gave GFP, % of control 105; viability (ATP), % of control 62.1; inactive.
Ap1ar #2 showed GFP, % of control 106; viability (ATP), % of control 63; inactive.
Ap1ar #3 showed GFP, % of control 114; viability (ATP), % of control 84.2; inactive.

Copied from above, 2 entries:
Nars1 #3 — GFP, % of control: 120; viability (ATP), % of control: 80.8; activity call: inactive
Ythdf2 #1 — GFP, % of control: 36.4; viability (ATP), % of control: 35.2; activity call: inactive
